Values of other authors as cited in patent US20200397798A1, “COMBINATION THERAPIES WITH FARNESOID X RECEPTOR (FXR) MODULATORS” (Akarna Therapeutics, Ltd., priority 2016, published 2020).
Like-named read-outs stand apart in the source and are kept apart here. For at least one compound, name, drawing or mass did not settle the structure.

How the values were obtained:
[1] = system: patients with PBC with inadequate response to UDCA
[2] = system: rabbit model of the metabolic syndrome; conditions: along with the high-fat diet
[3] = system: bile duct ligated (BDL) rats; conditions: rat, in vivo
[4] = system: Wistar rat model of cholestasis; conditions: in vivo
[5] = system: DSS- and TNBS-induced intestinal inflammation; conditions: mouse, in vivo
patients with BAD = conditions: human, in vivo
[6] = system: patients with biopsy-proven NASH; conditions: OCA 25 mg orally daily, 72 weeks of treatment

Row | SMILES | proportion of patients meeting the primary endpoint ([1]; 10 mg OCA group) | proportion of patients meeting the primary endpoint ([1]; 5-10 mg OCA group) | secondary endpoints (other liver function parameters, GG, ALT, total bilirubin) ([1]; both OCA dose groups) | visceral fat, fasting glucose levels and glucose tolerance [2] | liver fibrosis, α-collagen 1, TGF-β1, tissue metalloproteinase inhibitor-1 [3] | bile flow and acute hepatocyte necrosis caused by LCA [4] | DSS- and TNBS-induced intestinal inflammation [5] | body weight gain and liver and muscle fat deposition (Zucker fa/fa obese rats; fa/fa rats) | insulin resistance and hepatic steatosis (Zucker fa/fa obese rats; fa/fa rats on a normal diet) | stool frequency and consistency (patients with BAD) | percentage of patients who demonstrated histological improvement [6] | PBC patients with incomplete response (PBC patients; human, in vivo) | histological progression to cirrhosis and survival without liver transplantation (PBC patients; long-term administration)
1 | CC[C@H]1[C@@H](O)[C@@H]2[C@H](CC[C@]3(C)[C@@H]([C@H](C)CCC(=O)O)CC[C@@H]23)[C@@]2(C)CC[C@@H](O)C[C@@H]12 [OCA, obeticholic acid] | 47% | 46% | met secondary endpoints of improvements | normalized visceral fat fasting glucose levels, and improved glucose tolerance | reduced | promoted bile flow and protected the hepatocytes against acute necrosis | prevented | protected against body weight gain and liver and muscle fat deposition | reversed insulin resistance and hepatic steatosis | improved stool frequency and consistency | 45% |  | 
2 | C[C@H](CCC(=O)O)[C@H]1CC[C@H]2[C@@H]3[C@@H](O)C[C@@H]4C[C@H](O)CC[C@]4(C)[C@H]3CC[C@]12C [UDCA, ursodeoxycholic acid] |  |  |  |  |  |  |  |  |  |  |  | up to 40% | delays histological progression to cirrhosis and prolongs survival without liver transplantation
